# The whole screen tested about 410,000 compounds, of which about 18,000 (4.4%) were called active. The shares of active, inactive and inconclusive entries below differ from those in the screen. Cut-off read from the data, not from the text of the source: active = activity change below about -60%; inconclusive = no clear call, values can overlap the other calls; inactive = above about -39%.
# Experiment: qHTS Assay for inhibitors of the human cytomegalovirus (HCMV)
# Settings: HFF cells, HCMV-luciferase reporter, 72 h; at 57.5 µM; hits give low values
# Method in brief: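 Compounds were evaluated in HFFs infected with an HCMV luciferase reporter virus (MOI 1 PFU/cell). Luciferase in lysates collected 72 h post infection served as the replication measure.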
# % is set by controls: 0 for no effect and ±100 for the full control effect.
row,Structure (SMILES),"activity change, negative = inhibition"
1,C/C(=N\Nc1nc(C)cc(C)n1)c1ccc(N2CCOCC2)cc1,active: -68.6%
2,CC(=O)Nc1cccc(-c2ccnc3c2CC(C(=O)NCc2ccco2)O3)c1 (centres undefined),inconclusive: -42.8%
3,Cc1cccc(NC(=O)c2cc3c(=O)n4ccccc4nc3s2)c1,inconclusive: -51.9%
4,CCCCCc1c(Cc2ccccc2)ncn1CCc1ccccc1OC,active: -93.7%
5,Cc1[nH]c2ccccc2c1C(=O)COC(=O)c1c(-c2ccccc2)noc1C,active: -67.3%
6,COc1ccc(CCNC(=O)c2csc3c2CCCCC3)c(OC)c1,inconclusive: -53.6%
7,CCc1ccc(NC(=O)Cn2ccn(-c3ccc(OC)cc3)c(=O)c2=O)cc1,inconclusive: -47.1%
8,N[C@@H](Cc1c[nH]c2ccc(O)cc12)C(=O)O,inconclusive: -54.2%
9,O=C(NN=Cc1ccc(Cl)cc1Cl)C1CC1,inactive: 33.9%
10,O=C(c1cc(-c2cccs2)nn1-c1ccccc1)N1CCN(S(=O)(=O)c2ccccc2)CC1,inactive: -28.8%
11,O=C(NC1CCCCC1)c1cc(S(=O)(=O)N2CCN(c3ccccc3)CC2)ccc1Cl,inconclusive: -58.5%
12,CC(=O)c1cccc(NC(=S)N2CCN(S(C)(=O)=O)CC2)c1,inconclusive: -46.4%
13,NC(=O)COc1ccc(/C=N\NC(=O)CC(=O)NCCc2ccccc2)cc1,inconclusive: -44.9%
14,CCN(c1ccccc1)S(=O)(=O)c1ccc(Cl)c(NC(=O)CSc2nc(N)cc(=O)[nH]2)c1,inconclusive: -55.2%
15,CNC(=S)NNC(=O)c1sc2cc(C(F)(F)F)cnc2c1-c1ccccn1,inconclusive: -44.2%
16,CCC1CCCCN1Cc1c(O)ccc2c(=O)c(Oc3ccccc3Cl)c(C(F)(F)F)oc12 (centres undefined),inconclusive: -45.2%
17,COc1ccc(Nc2nc(-c3ccc4c(c3)NC(=O)CO4)cs2)cc1,inconclusive: -48.1%
18,Cc1ccc(OCCSc2nnc(-c3ccncc3)n2C)cc1,inconclusive: -41.3%
19,CCN(CC)S(=O)(=O)c1cc(NC(=O)CCc2c(C)noc2C)ccc1C,inactive: 16.1%
20,O=C(NCc1ccccc1)c1ccc(CSc2ccccc2)o1,inactive: 11%
21,CCOC(=O)COc1ccc(/C=C(\C#N)c2nc3ccc(C)cc3[nH]2)cc1OC,active: -105%
22,Cc1ccccc1Cn1c(=N)n(CC(=O)c2ccco2)c2ccccc21,inactive: -13.5%

row,Structure (SMILES),"activity change, negative = inhibition"
1,O=Cc1cccn1-c1ccc2ccccc2c1,inconclusive: -51.2%
2,N#CCC(=O)Nc1ccc(C(=O)OCC(=O)NCc2ccc3c(c2)OCO3)cc1,inactive: -20.3%
3,COc1cc(/C=N/NC(=O)c2cccnc2)ccc1OS(=O)(=O)c1cc(C)ccc1C,inconclusive: -43.3%
4,CCc1ccc(CN(C)C(=O)CCc2nc3ccccc3n(-c3ccc(OC)cc3)c2=O)cc1,active: -68.3%
5,Cc1cc(C)nc(N/N=C/C2=C(O)CC(c3ccc(F)cc3)CC2=O)n1 (centres undefined),inactive: -26.5%
6,CCCCn1c(=O)c2oc3ccccc3c2n(Cc2ccc(OC)cc2)c1=O,inconclusive: -54.1%
7,O=C1c2cccc3c([N+](=O)[O-])ccc(c23)C(=O)N1c1ccccn1,active: -103%
8,Cc1ccc(CNC(=O)c2ccccc2NC(=O)C2=CSCCO2)cc1,inconclusive: -45.6%
9,N#CC(=C1C=CC(=NO)C(Cl)=C1)c1ccccc1,active: -98.1%
10,O=C(CSc1nc2ccccc2c(=O)n1-c1ccc(F)c(Cl)c1)Nc1cccc(S(=O)(=O)N2CCOCC2)c1,inconclusive: -55.2%
11,CC(C)C(=O)Nc1nnc(S(=O)(=O)N(C)Cc2ccc(F)cc2)s1,inconclusive: 0%
12,CN1c2ccccc2N(C)C1(C)c1cccc2ccccc12,inconclusive: -54.6%
13,COc1ccc(CCN2CN(S(=O)(=O)c3ccc(OC)cc3)c3nc4ccccc4nc32)cc1,inconclusive: -44.2%
14,COc1cccc(Nc2nc3ccc(OC)cc3s2)c1,inactive: -25.7%
15,Cc1ccc(CSC(Nc2ccc(F)cc2)=C(C#N)C#N)cc1,active: -100%
16,CN(c1ncnc2c1c(-c1ccccc1)cn2-c1cccc(Cl)c1)C1CCCCC1,inconclusive: -52.6%
17,CC(C)(C)c1cc(C(=O)NCCN2CCCC2)cc(C(C)(C)C)c1,inconclusive: -57%
18,CCN(CC)S(=O)(=O)c1cccc(-c2nnc(SCCOc3ccccc3)o2)c1,active: -67.9%
19,COc1ccc(N2CCN(C(=O)CSc3nnc(-c4cc5ccccc5cc4O)n3C)CC2)cc1,active: -66.8%
20,COc1cccc(NC(=O)CCc2nc(-c3ccc(C(C)(C)C)cc3)no2)c1,active: -82.1%
21,CCCCN(CC)CCNC(=O)c1cc2c(C)nc3ccccc3c2o1,inconclusive: -52.2%
22,COCCn1c(-c2ccc(F)cc2)nc2cccnc21,inconclusive: -57.4%

# Fetched one by one from the list above (two):
row,Structure (SMILES),"activity change, negative = inhibition"
5,Cc1cc(C)nc(N/N=C/C2=C(O)CC(c3ccc(F)cc3)CC2=O)n1 (centres undefined),inactive: -26.5%
10,O=C(CSc1nc2ccccc2c(=O)n1-c1ccc(F)c(Cl)c1)Nc1cccc(S(=O)(=O)N2CCOCC2)c1,inconclusive: -55.2%

# — PubChem BioAssay AID1259415 (National Center for Advancing Translational Sciences (NCATS), 2018)
